Values of other authors, collected in patent US4959493A, “Carboxycyclopropylglycine and process for producing the same” (Suntory Limited, priority 1987, dated 1990).
At least one compound was matched to its structure with a doubt left.

Test system: motoneurons in the isolated spinal cord of a neonatal rat
Conditions: cited from earlier work

Question: For `CN[C@H](CC(=O)O)C(=O)O` [NMDA, N-methyl-D-aspartate], which “Activity (molar concentration) of NMDA, previously considered the most potent agonist” value is on record?
Answer: 2×10^-5 molar concentration
